# Laboratory results: PubChem BioAssay AID248 (DTP/NCI, 2004)
# The list does not hold the whole screen: it is rich in T/C values a quarter to a half above the control, in often repeated tests (any T/C) and in doses without a T/C. Other doses and runs of a compound stand elsewhere. T/C gives the treated animals as a percentage of the vehicle group. Some entries give survivors of the animals treated and no T/C: the source holds a T/C of zero for them, seemingly a mark for toxic or unscored doses. Some doses without a T/C left all or most animals alive at the check, yet need not have been tolerated: survival well below the control is almost never listed, so the zero probably covers shortened survival too. Counts of survivors are from the toxicity check (mostly the fifth day) where no day follows; animals may have died later. Schedule codes are those of the source, read here as Q, the interval in days (D) or hours (H), X, the number of doses. Some schedule codes hold Z or #, which are not explained here. For survival time, the PubChem record calls one and a half times the control and up active, and a quarter to a half above the control has no call in these data; cut-offs in other NCI protocols can differ. Some T/C values carry the count of animals alive at the toxicity check (mostly the fifth day); where none is given, no animal had died by that day.
# System: L1210 leukemia ip in BDF1 mice, survival T/C
# Assay: NCI In Vivo Anticancer Drug Screen. Data for tumor model L1210 Leukemia (intraperitoneal) in B6D2F1 (BDF1) mice
# Settings: higher T/C = longer survival
# [1] = T/C endpoint: mean survival time, dose: 200.0 mg/kg/injection, schedule: Q01DX009 (ip), vehicle: Klucel (hydroxypropylcellulose) (HPC)
# [2] = T/C endpoint: mean survival time, dose: 300.0 mg/kg/injection, schedule: Q01DX001 (ip), vehicle: saline
# [3] = T/C endpoint: mean survival time, dose: 100.0 mg/kg/injection, schedule: Q01DX009 (ip), vehicle: Klucel (hydroxypropylcellulose) (HPC)
# [4] = T/C endpoint: mean survival time, dose: 400.0 mg/kg/injection, schedule: Q04DX003 (ip), vehicle: Klucel (hydroxypropylcellulose) (HPC)
# [5] = T/C endpoint: mean survival time, dose: 400.0 mg/kg/injection, schedule: Q01DX009 (ip), vehicle: water
structure (smiles),measurement,setting,value
O=c1cc[nH]c(=O)o1,T/C,"T/C endpoint: mean survival time, dose: 19.0 mg/kg/injection, schedule: Q01DX009 (ip), vehicle: water",129 % of control [9 of 10 alive]
same,T/C,"T/C endpoint: mean survival time, dose: 28.0 mg/kg/injection, schedule: Q01DX009 (ip), vehicle: water",127 % of control
same,T/C,"T/C endpoint: mean survival time, dose: 42.0 mg/kg/injection, schedule: Q01DX009 (ip), vehicle: water",133 % of control
CC(C)(C)C1CCC(NC(=O)CCl)CC1 (configuration not stated),survivor count,[1],5 of 6
N#Cc1ccc(P(=O)(O)O)cc1,survivor count,[2],3 of 6
C=C(C)[P+](C)(c1ccccc1)c1ccccc1,survivor count,"T/C endpoint: mean survival time, dose: 10.0 mg/kg/injection, schedule: Q01DX001 (ip), vehicle: saline",1 of 6
same,survivor count,"T/C endpoint: mean survival time, dose: 15.0 mg/kg/injection, schedule: Q01DX001 (ip), vehicle: saline",0 of 6
same,survivor count,"T/C endpoint: mean survival time, dose: 30.0 mg/kg/injection, schedule: Q01DX001 (ip), vehicle: saline",0 of 6
same,survivor count,"T/C endpoint: mean survival time, dose: 60.0 mg/kg/injection, schedule: Q01DX001 (ip), vehicle: saline",0 of 6
same,survivor count,"T/C endpoint: mean survival time, dose: 75.0 mg/kg/injection, schedule: Q01DX001 (ip), vehicle: saline",0 of 6
same,survivor count,"T/C endpoint: mean survival time, dose: 150.0 mg/kg/injection, schedule: Q01DX001 (ip), vehicle: saline",0 of 6
same,survivor count,[2],1 of 6
CC(C)C(=Nc1ccc(Cl)c(Cl)c1)N(C)C,survivor count,"T/C endpoint: mean survival time, dose: 100.0 mg/kg/injection, schedule: Q01DX Z (ip), vehicle: methylcellulose (MC)",2 of 6
COC(=O)/C=C/NC(=O)c1ccccc1C(=O)OC,survivor count,[3],6 of 6
same,survivor count,[1],6 of 6
same,survivor count,"T/C endpoint: mean survival time, dose: 400.0 mg/kg/injection, schedule: Q01DX009 (ip), vehicle: Klucel (hydroxypropylcellulose) (HPC)",6 of 6
CCCCCCCCCC(=O)CCCCCCC,survivor count,"T/C endpoint: mean survival time, dose: 200.0 mg/kg/injection, schedule: Q01DX009 (ip), vehicle: other",6 of 6
O=C(COc1ccc(Cl)c(Cl)c1)NCc1ccc[n+](Cc2ccc(S(=O)(=O)F)cc2)c1,survivor count,"T/C endpoint: mean survival time, dose: 200.0 mg/kg/injection, schedule: Q04DX003 (ip), vehicle: Klucel (hydroxypropylcellulose) (HPC)",2 of 6
same,survivor count,[4],0 of 6
NCc1ccc(NC(=O)c2ccc(C(=O)Nc3ccc(CN)cc3)cc2)cc1,survivor count,"T/C endpoint: mean survival time, dose: 56.0 mg/kg/injection, schedule: Q01DX Z (ip), vehicle: water",1 of 6
same,survivor count,"T/C endpoint: mean survival time, dose: 112.0 mg/kg/injection, schedule: Q01DX Z (ip), vehicle: water",0 of 6
same,survivor count,"T/C endpoint: mean survival time, dose: 225.0 mg/kg/injection, schedule: Q01DX Z (ip), vehicle: water",0 of 6
same,survivor count,"T/C endpoint: mean survival time, dose: 450.0 mg/kg/injection, schedule: Q01DX Z (ip), vehicle: water",0 of 6
ClC1=C(Cl)C2(Cl)C(Cl)CC1(Cl)C2(Cl)Cl (configuration not stated),survivor count,"T/C endpoint: mean survival time, dose: 400.0 mg/kg/injection, schedule: Q04DX003 (ip), vehicle: saline",6 of 6
O=C(C[P+](c1ccccc1)(c1ccccc1)c1ccccc1)Nc1ccccc1,survivor count,"T/C endpoint: mean survival time, dose: 150.0 mg/kg/injection, schedule: Q01DX009 (ip), vehicle: Klucel (hydroxypropylcellulose) (HPC)",0 of 6
same,survivor count,"T/C endpoint: mean survival time, dose: 300.0 mg/kg/injection, schedule: Q01DX009 (ip), vehicle: Klucel (hydroxypropylcellulose) (HPC)",0 of 6
CCCC1=NNc2n[nH]c(=S)n2N1,survivor count,[3],1 of 6
same,survivor count,[1],0 of 6
same,survivor count,[4],0 of 6
O=Cc1ccc(/C=C2\NC(=O)NC2=O)cc1,survivor count,[5],6 of 6
COc1cccc2c1C(=O)c1c(O)c3c(c(O)c1C2=O)CC(O)(C(=O)CO)CC3OC1CC(N)C(O)C(C)O1 (configuration not stated),T/C,"T/C endpoint: mean survival time, dose: 0.25 mg/kg/injection, schedule: Q01DX008 (ip), vehicle: saline",141 % of control
same,survivor count,"T/C endpoint: mean survival time, dose: 8.0 mg/kg/injection, schedule: Q01DX008 (ip), vehicle: saline",8 of 8
same,T/C,"T/C endpoint: median survival time, dose: 2.4 mg/kg/injection, schedule: Q01DX005 (ip), vehicle: water",133 % of control
same,T/C,"T/C endpoint: median survival time, dose: 4.0 mg/kg/injection, schedule: Q01DX005 (ip), vehicle: water",133 % of control
same,T/C,"T/C endpoint: median survival time, dose: 6.6 mg/kg/injection, schedule: Q04DX003 (ip), vehicle: water",133 % of control
same,T/C,"T/C endpoint: median survival time, dose: 11.0 mg/kg/injection, schedule: Q01DX005 (ip), vehicle: water",142 % of control
same,T/C,"T/C endpoint: median survival time, dose: 11.0 mg/kg/injection, schedule: Q04DX003 (ip), vehicle: water",138 % of control [9 of 10 alive]
same,T/C,"T/C endpoint: median survival time, dose: 19.0 mg/kg/injection, schedule: Q01DX005 (ip), vehicle: water",142 % of control
same,T/C,"T/C endpoint: median survival time, dose: 21.0 mg/kg/injection, schedule: Q01DX005 (ip), vehicle: other, evaluated on day 5",132 % of control
same,T/C,"T/C endpoint: median survival time, dose: 21.0 mg/kg/injection, schedule: Q01DX005 (ip), vehicle: other, evaluated on day 31",132 % of control
same,T/C,"T/C endpoint: median survival time, dose: 31.0 mg/kg/injection, schedule: Q01DX005 (ip), vehicle: other, evaluated on day 5",126 % of control
same,T/C,"T/C endpoint: median survival time, dose: 31.0 mg/kg/injection, schedule: Q01DX005 (ip), vehicle: other, evaluated on day 31",126 % of control
same,T/C,"T/C endpoint: median survival time, dose: 31.0 mg/kg/injection, schedule: Q01DX005 (ip), vehicle: water",147 % of control
same,T/C,"T/C endpoint: median survival time, dose: 31.0 mg/kg/injection, schedule: Q04DX003 (ip), vehicle: water",138 % of control
same,T/C,"T/C endpoint: median survival time, dose: 41.0 mg/kg/injection, schedule: Q01DX005 (ip), vehicle: other, evaluated on day 5",127 % of control
same,T/C,"T/C endpoint: median survival time, dose: 41.0 mg/kg/injection, schedule: Q01DX005 (ip), vehicle: other, evaluated on day 31",127 % of control
same,T/C,"T/C endpoint: median survival time, dose: 52.0 mg/kg/injection, schedule: Q04DX003 (ip), vehicle: water",147 % of control
CC(C)OC(=O)Nc1ccncc1,survivor count,"T/C endpoint: mean survival time, dose: 25.0 mg/kg/injection, schedule: Q04DX002 (ip), vehicle: saline with Tween-80",0 of 3
NCCCCC(N)C(=O)NC(CCCN=C(N)N)C(=O)O (configuration not stated),survivor count,"T/C endpoint: mean survival time, dose: 100.0 mg/kg/injection, schedule: Q04DX003 (ip), vehicle: water",6 of 6
same,survivor count,"T/C endpoint: mean survival time, dose: 200.0 mg/kg/injection, schedule: Q04DX003 (ip), vehicle: water",6 of 6
same,survivor count,[5],3 of 6
same,survivor count,"T/C endpoint: mean survival time, dose: 400.0 mg/kg/injection, schedule: Q04DX003 (ip), vehicle: water",6 of 6
Nc1ncnc2c1ncn2C1CC(CO)C(O)C1O (configuration not stated),survivor count,"T/C endpoint: mean survival time, dose: 50.0 mg/kg/injection, schedule: Q01DX009 (ip), vehicle: carboxymethylcellulose (CMC)",4 of 6
O=C([S][Pb]([c]1ccccc1)([c]1ccccc1)[c]1ccccc1)c1ccccc1,survivor count,"T/C endpoint: mean survival time, dose: 8.0 mg/kg/injection, schedule: Q01DX009 (ip), vehicle: Klucel (hydroxypropylcellulose) (HPC)",0 of 6
same,survivor count,"T/C endpoint: mean survival time, dose: 11.0 mg/kg/injection, schedule: Q01DX009 (ip), vehicle: Klucel (hydroxypropylcellulose) (HPC)",0 of 6
same,survivor count,"T/C endpoint: mean survival time, dose: 18.0 mg/kg/injection, schedule: Q01DX009 (ip), vehicle: Klucel (hydroxypropylcellulose) (HPC)",0 of 6
same,survivor count,"T/C endpoint: mean survival time, dose: 18.0 mg/kg/injection, schedule: Q04DX003 (ip), vehicle: Klucel (hydroxypropylcellulose) (HPC)",4 of 6
same,survivor count,"T/C endpoint: mean survival time, dose: 27.0 mg/kg/injection, schedule: Q01DX009 (ip), vehicle: Klucel (hydroxypropylcellulose) (HPC)",0 of 6
same,survivor count,"T/C endpoint: mean survival time, dose: 27.0 mg/kg/injection, schedule: Q04DX003 (ip), vehicle: Klucel (hydroxypropylcellulose) (HPC)",4 of 6
O=C(Nc1cccc2ccccc12)OC1CCCCC1Br (configuration not stated),survivor count,"T/C endpoint: mean survival time, dose: 100.0 mg/kg/injection, schedule: Q01DX001 (ip), vehicle: saline with Tween-80",3 of 3
COc1cc(CCO)cc(OC)c1,survivor count,"T/C endpoint: mean survival time, dose: 50.0 mg/kg/injection, schedule: Q01DX001 (ip), vehicle: carboxymethylcellulose (CMC)",4 of 4
same,survivor count,"T/C endpoint: mean survival time, dose: 400.0 mg/kg/injection, schedule: Q01DX001 (ip), vehicle: carboxymethylcellulose (CMC)",4 of 4
O=C(NCCCNC(=O)Nc1ccc(C2=NCCCN2)cc1)Nc1ccc(C2=NCCCN2)cc1,survivor count,"T/C endpoint: mean survival time, dose: 40.0 mg/kg/injection, schedule: Q01DX015 (ip), vehicle: methylcellulose (MC)",1 of 6
same,survivor count,"T/C endpoint: mean survival time, dose: 80.0 mg/kg/injection, schedule: Q01DX015 (ip), vehicle: methylcellulose (MC)",0 of 6
c1ccc(-c2ccc([Si](c3ccc(-c4ccccc4)cc3)(c3ccc(-c4ccccc4)cc3)c3ccc(-c4ccccc4)cc3)cc2)cc1,survivor count,"T/C endpoint: mean survival time, dose: 100.0 mg/kg/injection, schedule: Q04DX003 (ip), vehicle: gum acacia",6 of 6
same,survivor count,"T/C endpoint: mean survival time, dose: 200.0 mg/kg/injection, schedule: Q04DX003 (ip), vehicle: gum acacia",6 of 6
same,survivor count,"T/C endpoint: mean survival time, dose: 400.0 mg/kg/injection, schedule: Q04DX003 (ip), vehicle: gum acacia",6 of 6
